No constants are given. Whether binding was seen depends on the method and setting. For some assays here: Binding seen in cells or lysates may run through a third protein. Some results given as binding are weak or reduced against the parent protein; the word gives no strength.

In test [1] the target is T1, TNFR2 (mouse, endogenous in hindlimb muscle of C57BL/6 mice) (mouse) (UniProt P25119).
T1 sequence (looked up): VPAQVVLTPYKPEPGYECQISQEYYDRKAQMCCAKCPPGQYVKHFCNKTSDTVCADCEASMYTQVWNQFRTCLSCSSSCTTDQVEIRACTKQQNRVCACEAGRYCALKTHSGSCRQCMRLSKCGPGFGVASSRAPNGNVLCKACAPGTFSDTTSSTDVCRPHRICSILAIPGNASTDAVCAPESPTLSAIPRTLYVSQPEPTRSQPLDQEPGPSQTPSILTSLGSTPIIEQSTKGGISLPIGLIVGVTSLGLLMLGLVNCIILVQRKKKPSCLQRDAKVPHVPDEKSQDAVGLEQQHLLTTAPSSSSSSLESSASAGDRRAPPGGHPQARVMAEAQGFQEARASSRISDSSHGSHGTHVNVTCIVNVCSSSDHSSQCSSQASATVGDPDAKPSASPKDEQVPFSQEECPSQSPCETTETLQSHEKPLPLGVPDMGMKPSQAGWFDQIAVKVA
The test can be described thus: summary of the immunoprecipitation results in ischemic mouse hindlimb.

Test [2] has as its target T1, TNFR2 (mouse, endogenous in hindlimb muscle of C57BL/6 mice) (mouse). Nature of the test: co-immunoprecipitation from ischemic hindlimb muscle of C57BL/6 mice.

B1: Bmx/Etk (mouse, endogenous) (enzyme, UniProt P97504 1-651, looked up)
chain: MESKSILEELLLKKSQQKKKMSPNNYKERLFVLTKTSLSYYEYDKMKRGSRKGSIEIKKIRCVEKVNLEEQTPVERQYPFQIVYKDGLLYVYASNEESRCQWLKALQKEIRGNPHLLIKYHSGFFVDGKFLCCQQSCKAAPGCTLWEAYADLHIAISDEKHRAPTFPERLLKIPRAVPVLKMDASSSGAILPQYDSYSKKSCGSQPTSNIRYIPREDCPDWWQVRKLKSEEDIACSNQLERNIASHSTSKMSWGFPESSSSEEEENLHAYDWFAGNISRSQSEQLLRQKGKEGAFMVRNSSQMGMYTVSLFSKAVNDKKGTVKHYHVHTNAENKLYLAENYCFDSIPKLIHYHQHNSAGMITRLRHPVSTKANKVPVSVALGSGIWELKREEITLLKELGNGQFGVVQLGQWKGQYDVAVKMIKEGAMSEDEFFQEAQTMMKLSHPKLVKFYGVCSKKYPIYIVTEYITNGCLLNYLKSHGKGLESCQLLEMCYDVCEGMAFLESHQFIHRDLAARNCLVDSDLSVKVSDFGMTRYVLDDQYVSSVGTKFPVKWSAPEVFHYFKYSSKSDVWAFGILMWEVFSLGKQPYDLYDNSEVVVKVSQGHRLYRPQLASDTIYQIMYSCWHELPEKRPTFQQLLSAIEPLREQDKP
Consider B1, for which the binding entry in test [1] and in test [2] was “binds” each time.

The values above are taken from patent US9081017.
